PubChem BioAssay AID1259272, Sanger Institute – 2017

- Purpose: 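Kinase knock-downs lethal to colorectal cancer cells, with or without anchor drugs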 (primary screen)
- Cells: SW1116 human colorectal cancer cells
- Reagent: siRNA pool against human genes
- Challenge: anchor drugs BYL719 (1 µM), cetuximab (5 µg/ml) or trametinib (10 nM), or DMSO vehicle; exposure length not given
- Measurement: 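Cell survival as a fraction of wells given a non-targeting pool, averaged over replicates; robust z-score without drug; synergy score for each of BYL719, cetuximab and trametinib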
- Direction: viability z-score, no drug: higher = more cells remaining; strongly negative means essential gene; viability, no drug: higher = more viable cells; synergy score with BYL719 and synergy score with cetuximab and synergy score with trametinib: higher = stronger synthetic-lethal synergy with the drug
- Rule for the call: 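a robust z-score under -3 with siRNA and no drug marks the gene essential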
- Calls: active = essential (knock-down alone); inactive = no change
The deposit covers 794 reagents; shown is a random part of them. 7 of them (0.88%) were called active. 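Essential calls reflect knock-down without drug only, not synergy with drugs; drug exposure length not given.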 Entries without a mark were called inactive. No viability above 1 is reported: the scale is capped. The record does not give: the amount of reagent, the time to read-out.

The opening 6 entries, to show the layout:
target gene,"viability z-score, no drug","viability, no drug (fraction of control)",synergy score with BYL719,synergy score with cetuximab,synergy score with trametinib
TNIK,-0.656,0.84,-0.226,-0.109,-0.053
MKNK1,0.842,1,-0.0788,0.00779,0.0307
HK3,0.842,1,-0.0788,0.00055,-0.0557
EPHA2,-0.00835,0.909,-0.136,-0.0412,-0.181
NUAK2,-1.93,0.704,-0.309,-0.0411,-0.0594
PRKCH,-0.455,0.862,-0.206,-0.1,-0.0131

The listing, repeating the preview:
target gene,"viability z-score, no drug","viability, no drug (fraction of control)",synergy score with BYL719,synergy score with cetuximab,synergy score with trametinib
TNIK,-0.656,0.84,-0.226,-0.109,-0.053
MKNK1,0.842,1,-0.0788,0.00779,0.0307
HK3,0.842,1,-0.0788,0.00055,-0.0557
EPHA2,-0.00835,0.909,-0.136,-0.0412,-0.181
NUAK2,-1.93,0.704,-0.309,-0.0411,-0.0594
PRKCH,-0.455,0.862,-0.206,-0.1,-0.0131
TK2,0.842,1,-0.0788,0.0765,0.132
PRKAB2,-1.39,0.762,0.0298,-0.0516,0.0135
TAOK2,0.406,0.954,-0.122,-0.118,-0.0304
FLT3,0.607,0.975,-0.0278,0.0938,-0.0523
IKBKE,0.842,1,-0.0788,-0.0732,0.0752
TEC,0.609,0.975,0.0509,0.0707,-0.155
STRADA,0.461,0.959,-0.0217,-0.000783,-0.0485
MLKL,0.76,0.991,-0.0868,0.0392,0.206
CAD,0.791,0.995,-0.0123,-0.0807,-0.0228
AK7,0.842,1,-0.0207,0.078,0.0765
BCKDK,-0.477,0.859,0.0716,0.0224,0.106
FN1,0.314,0.944,0.00298,-0.1,0.156
MYLK3,-0.158,0.893,0.0962,0.0735,0.0456
ATM,-1.27,0.775,-0.138,-0.0882,-0.073
PRKY,0.348,0.947,0.00136,-0.0346,0.148
CSNK2A1,0.842,1,-0.0788,0.0311,0.0701
ERN1,-1.63,0.737,-0.102,-0.159,0.108
MAP3K10,0.842,1,-0.0307,0.0304,0.113
MST1R,0.842,1,-0.0086,-0.0488,-0.0344
MAPK14,0.842,1,-0.00711,0.0969,0.212
CDK19,-1.61,0.738,-0.241,-0.115,0.0784
FXR1,0.252,0.937,-0.109,-0.0522,0.148
MAP3K2,-0.53,0.854,-0.14,-0.0279,-0.156
MARK4,-0.598,0.847,-0.00396,0.0486,0.0925
CDKN1B,0.41,0.954,-0.0702,0.0395,-0.0227
COMMD3,0.761,0.991,0.147,0.0834,0.162
PRKACA,0.344,0.947,0.0353,0.0229,0.0457
RPS6KA6,0.842,1,0.0718,0.0619,0.117
RIOK2,-0.609,0.845,-0.0823,-0.0793,-0.0611
PIKFYVE,0.644,0.979,0.0393,-0.0952,0.106
PIK3R5,0.0421,0.915,-0.00728,0.0083,0.0917
NME7,0.842,1,-0.0788,0.0413,0.0321
CDK2,0.842,1,0.0835,-0.0757,0.00443
KMT2B,-1.11,0.792,-0.148,-0.00422,-0.191
CAMK1D,-0.473,0.86,-0.0162,-0.0502,-0.0602
POLR2B,-1.15,0.788,-0.108,-0.0574,-0.147
ALPK3,0.842,1,-0.0788,0.0203,-0.124
STK26,0.841,1,0.0656,0.094,0.0517
MAP2K3,-0.896,0.815,-0.0111,-0.0958,-0.104
CMPK1,0.842,1,0.0999,0.139,0.151
PRAG1,-2.45,0.649,-0.157,-0.00659,0.104
CKS2,0.842,1,-0.0517,0.0521,0.126
TGFBR3,0.842,1,-0.0788,0.0174,0.0101
DLG3,-1.57,0.743,-0.214,-0.0411,-0.0903
CDKL4,-1.62,0.737,-0.133,-0.00741,0.0873
NME2,0.842,1,-0.00512,-0.0757,-0.0493
RPS6KA1,0.624,0.977,-0.1,-0.0726,-0.0225
TAOK1,-1.06,0.797,-0.265,-0.0477,0.00566
EPHB2,0.842,1,-0.0788,0.0465,0.25
PRKCG,-0.353,0.873,-0.129,-0.106,0.116
ZAP70,-1.05,0.798,-0.17,-0.0376,0.0645
TESK1,0.842,1,-0.063,-0.0757,0.112
THNSL1,0.842,1,-0.0515,-0.0131,0.0728
BTK,-0.387,0.869,-0.166,-0.15,0.0156
CILK1,-0.631,0.843,-0.098,-0.0918,0.091
SHPK,-0.347,0.873,-0.041,-0.0824,-0.101
PRKAB1,-1.7,0.729,-0.15,-0.202,0.0957
